# This is one part of the list. The main result of the screen is listed elsewhere. These columns were measured beside it and carry no call. The list favours compounds with an active or inconclusive main result. The note in brackets gives the kind of curve behind each potency; many fits are weak.
# Assay: qHTS Assay for Lipid Storage Modulators in Drosophila S3 Cells;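 for cell number change: cells counted by Cell Tracker Red CMTPX staining in the red channel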
# Conditions: BODIPY lipid droplet fluorescence, 18-24 h; for cell number change: measured here: cell count max response, cells fed with added oleic acid
# In short: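 Laser-scanning cytometry quantifies lipid droplet accumulation (500–530 nm total intensity; droplet/cell object ratio) in oleic acid-fed (400 uM added) Drosophila S3 cells treated with a concentration series. 20 uM Triacsin C defined 100% inhibition.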
# [1] = measured here: cell number channel AC50, cells fed with added oleic acid
# [2] = measured here: lipid fluorescence (Fed channel) AC50, cells fed with added oleic acid
Structure (SMILES),cell number change [%],AC50 [1],AC50 [2]
CC(C)(C)C(=O)NCCCc1ccccc1,-17.2,–,–
O=C(O)c1ccccc1N(Cc1ccccc1)C(=O)CO/N=C/c1ccccc1,10.9,"6.51 µM [rising, single point]","0.231 µM [falling, full curve, poor fit]"
CC1CN(C(=S)SCC(=O)c2ccccc2)CC(C)O1 (stereo not drawn),-27.5,–,"0.259 µM [falling, full curve, poor fit]"
Cc1ccc(S(=O)(=O)N[C@H](C(=O)OCn2nnc3ccccc3c2=O)C(C)C)cc1,-88.8,"29.1 µM [falling, single point]",–
Nc1nnnn1/N=C/c1ccccc1OCc1ccc(Cl)cc1Cl,-23.6,–,"4.11 µM [rising, partial curve]"
CCn1c(SCC(=O)Nc2ccc(C)cc2)nc(O)cc1=O,-18.4,–,"1.03 µM [falling, full curve]"
Cc1cn(C2CC(OC(=O)C(C)C)C(CO)O2)c(=O)[nH]c1=O (stereo not drawn),32.9,"16.4 µM [rising, single point]","0.13 µM [rising, full curve, poor fit]"
COCCCNC(=O)/C(C#N)=c1\s/c(=C\c2ccccc2OC(F)F)c(=O)n1CCCOC,36.2,–,"6.51 µM [rising, single point]"
Cc1ccc(S(=O)(=O)N(C)C2(C)CCS(=O)(=O)C2)cc1 (stereo not drawn),-33.9,"32.6 µM [falling, single point]","29.1 µM [falling, single point]"
CCn1nc(NC(=O)c2cccs2)c2cc3ccccc3nc21,61.1,–,"29.1 µM [rising, partial curve]"
OCC1(CCOc2ccccc2)CCN(Cc2cn[nH]c2-c2ccccc2)CC1,14,–,–
COc1ccc(C)cc1NC(=O)COC(=O)C1CC1,1.47,"0.146 µM [falling, full curve]","0.291 µM [falling, partial curve, poor fit]"
COc1ccc(C(NC(=O)C2CCCCC2)c2c(O)ccc3ccccc23)cc1 (stereo not drawn),-13,–,"0.731 µM [falling, full curve, poor fit]"
O=C(NCCC1CCCCN1S(=O)(=O)c1cccs1)C(=O)Nc1ccc(F)cc1 (stereo not drawn),-30.7,"10.3 µM [falling, partial curve]",–
C=CCn1c(SCCOc2ccc(OC)cc2)nnc1C(CO)NC(=O)c1ccc(OC)cc1 (stereo not drawn),111,"29.1 µM [rising, single point]","0.731 µM [rising, full curve]"
O=C1c2ccccc2C(=O)c2[nH]c(=O)[nH]c21,-39.7,"10.3 µM [falling, partial curve]","13 µM [falling, partial curve]"
CC#CC#Cc1cccc(=O)o1,-9.74,–,"2.06 µM [falling, partial curve]"
O=C(CN(C(=O)c1cccc([N+](=O)[O-])c1)C1CCCCC1)Nc1ccc(Cl)c([N+](=O)[O-])c1,15.8,–,"3.26 µM [rising, full curve, poor fit]"
S=C(NCCC(c1ccccc1)c1ccccc1)Nc1ccc(Cl)cc1,-19.8,–,"1.64 µM [falling, single point]"
CCN(CC(=O)Nc1c(F)cccc1F)C(=O)/C=C/c1ccc(OCC#N)c(OC)c1,2.55,"0.164 µM [rising, full curve, poor fit]","0.116 µM [rising, full curve, poor fit]"

# Of the compounds above, these contain an aryl methoxy group.
Structure (SMILES),cell number change [%],AC50 [1],AC50 [2]
COc1ccc(C)cc1NC(=O)COC(=O)C1CC1,1.47,"0.146 µM [falling, full curve]","0.291 µM [falling, partial curve, poor fit]"
COc1ccc(C(NC(=O)C2CCCCC2)c2c(O)ccc3ccccc23)cc1 (stereo not drawn),-13,–,"0.731 µM [falling, full curve, poor fit]"
C=CCn1c(SCCOc2ccc(OC)cc2)nnc1C(CO)NC(=O)c1ccc(OC)cc1 (stereo not drawn),111,"29.1 µM [rising, single point]","0.731 µM [rising, full curve]"
CCN(CC(=O)Nc1c(F)cccc1F)C(=O)/C=C/c1ccc(OCC#N)c(OC)c1,2.55,"0.164 µM [rising, full curve, poor fit]","0.116 µM [rising, full curve, poor fit]"

# Later entries

Structure (SMILES),cell number change [%],AC50 [1],AC50 [2]
CCc1cc(C(=O)N(CC)CC(=O)Nc2ccc(OC)cc2)sc1C,28.5,–,"18.4 µM [falling, single point]"
COc1ccc2c(c1)c(C(=O)CN1CCN(C(=O)c3ccco3)CC1)c(C)n2C,-14.7,–,"4.61 µM [rising, full curve, poor fit]"
Cc1cccc(NC(=O)CN2C(=O)NC(Cc3ccccc3)C2=O)c1 (stereo not drawn),–,"0.103 µM [rising, full curve, poor fit]","0.206 µM [rising, full curve, poor fit]"
O=C(CN1CCN(Cc2cccc(Cl)c2)C1=O)NCC1CCCO1 (stereo not drawn),-60.2,"16.4 µM [falling, single point]",–
CC(C)(C)NC(=S)N/N=C\c1ccc(-c2ccc([N+](=O)[O-])cc2)o1,-1.42,–,–
CCOc1cc(C(=O)NC(C)CCc2ccccc2)cc(OCC)c1OCC (stereo not drawn),2.81,–,"29.1 µM [falling, single point]"
O=C(Nc1cccc(S(=O)(=O)N2CCCC2)c1)c1cccc(OC(F)F)c1,39.4,"1.03 µM [rising, full curve]",–
CC1CCN(C(=O)COc2cccc3c2CCN(C)C3=O)CC1,-29,–,"1.84 µM [falling, full curve]"
CCOC(=O)c1cnc(-n2nc(C)cc2C)nc1NCCc1ccccc1,-69.1,"29.1 µM [falling, single point]","2.91 µM [rising, partial curve]"
CC(C)C(=O)O/N=C1\CCS(=O)(=O)c2sccc21,21.1,–,"23.1 µM [rising, single point]"
O=C(c1ccc(-n2cncn2)c([N+](=O)[O-])c1)N1CCN(S(=O)(=O)c2cccc(F)c2)CC1,–,"6.51 µM [rising, single point]","1.84 µM [falling, full curve, poor fit]"
Cc1ccc(C(=O)NNC(=O)C2CCN(Cc3ccc(Cl)c(Cl)c3)CC2)cc1,-4.84,"0.259 µM [falling, partial curve, poor fit]",–
CCn1c(CC(=O)Nc2ccccc2F)nnc1SCC(=O)Nc1nnc(C)s1,9.4,–,"29.1 µM [rising, single point]"
Cc1ccc(N(C(=O)Nc2ccccc2)C2=NCCC2)cc1,20.1,"0.0058 µM [rising, full curve, poor fit]","29.1 µM [rising, single point]"
COc1cccc(C2C(C(C)=O)=C(C)Nc3ncnn32)c1 (stereo not drawn),50,"29.1 µM [rising, partial curve, poor fit]","29.1 µM [falling, single point]"
CC1(C)C(c2ccccc2)=NC(c2ccc(F)cc2)N1O (stereo not drawn),183,"5.8 µM [rising, full curve]","8.2 µM [rising, partial curve]"
CCOC(=O)N1CCN(c2cc(=O)n(-c3ccccc3C)c(=O)[nH]2)CC1,22.2,"2.91 µM [falling, single point]","3.26 µM [falling, single point]"
CCC(=Nc1ccccc1OC)C1=C(O)CC(c2ccccc2)CC1=O (stereo not drawn),-37.2,"1.3 µM [falling, partial curve, poor fit]",–
Cc1c(NC(=O)c2ccc(Cl)s2)c(=O)n(-c2ccccc2)n1C,-19.1,–,"29.1 µM [rising, single point]"
COC(=O)c1ccc(C(=O)OC)c(NS(=O)(=O)c2ccc(NC(C)=O)cc2)c1,2.36,–,"0.731 µM [falling, full curve, poor fit]"

Structure (SMILES),cell number change [%],AC50 [1],AC50 [2]
O=c1cnnc(Nc2ccccc2F)[nH]1,37.1,–,–
CCOC(=O)c1ccc(S(=O)(=O)N(CCO)Cc2cc3cc(OC)c(OC)cc3[nH]c2=O)cc1,–,–,"6.51 µM [falling, single point]"
CCNc1ccc(C(=O)OCC(=O)c2cc(C)n(Cc3ccc4c(c3)OCO4)c2C)cc1[N+](=O)[O-],0.334,–,–
COC(=O)c1cc(C(=O)OC)cc(-n2c(C)cc(C=O)c2C)c1,24.5,–,–
O=C(N/N=C/c1ccccn1)c1cc(C2CC2)nc2ccccc12,-7.98,–,–
Cn1ncc2c(O/N=C(\N)c3ccc(C(C)(C)C)cc3)ncnc21,-54.2,"29.1 µM [falling, single point]","1.84 µM [falling, partial curve]"
COc1ccccc1CNC(=O)c1ccc(-c2ccccc2C(F)(F)F)o1,-20.7,–,–
COc1ccc(OCc2nnc(SCC(=O)N3C(C)CCCC3C)o2)cc1 (stereo not drawn),-0.84,–,–
O=C(O)c1cc(N/N=C/c2ccc3c(c2)OCO3)ccc1Cl,0.683,"0.13 µM [falling, full curve, poor fit]","0.13 µM [falling, full curve, poor fit]"
CCc1nonc1NC(=O)COc1cc(C)c(Cl)c(C)c1,–,–,"29.1 µM [falling, single point]"
Cc1ccc2nc(NC(=O)c3cc(-c4ccco4)nc4ccccc34)sc2c1,-44.3,"29.1 µM [falling, single point]","29.1 µM [falling, single point]"
Cc1ccc(NC2=Nc3ccccc3CC2)cc1,47.5,"32.6 µM [rising, single point]",–
CC(C)(C)OC(=O)NOCC(=O)N(CC(=O)c1ccccc1)Cc1ccccc1,11,–,"0.731 µM [rising, full curve, poor fit]"
O=C(Cn1ccccc1=O)c1cccs1,-3.51,–,–
COc1ccc(C2=NOC(C(=O)NCc3cccs3)C2)cc1OC (stereo not drawn),34.9,–,"4.11 µM [rising, partial curve]"
COc1ccccc1OCC(O)CN1CCOCC1 (stereo not drawn),47.7,–,–
COc1cc(C(=O)NCCOc2ccc(Cl)cc2)ccc1OCc1c(C)noc1C,5.09,–,"14.6 µM [rising, partial curve]"
CCN(CC)S(=O)(=O)c1cc([N+](=O)[O-])ccc1NNC(=O)Nc1ccccc1,7.02,–,"29.1 µM [rising, single point]"
